The text below walks through data of BindingDB's records for doi:10.1124/mol.63.6.1223 (Case Western Reserve University, 2003).

Amino acid sequences for entries named in this document (tags omitted).
UniProt P41595, whole entry: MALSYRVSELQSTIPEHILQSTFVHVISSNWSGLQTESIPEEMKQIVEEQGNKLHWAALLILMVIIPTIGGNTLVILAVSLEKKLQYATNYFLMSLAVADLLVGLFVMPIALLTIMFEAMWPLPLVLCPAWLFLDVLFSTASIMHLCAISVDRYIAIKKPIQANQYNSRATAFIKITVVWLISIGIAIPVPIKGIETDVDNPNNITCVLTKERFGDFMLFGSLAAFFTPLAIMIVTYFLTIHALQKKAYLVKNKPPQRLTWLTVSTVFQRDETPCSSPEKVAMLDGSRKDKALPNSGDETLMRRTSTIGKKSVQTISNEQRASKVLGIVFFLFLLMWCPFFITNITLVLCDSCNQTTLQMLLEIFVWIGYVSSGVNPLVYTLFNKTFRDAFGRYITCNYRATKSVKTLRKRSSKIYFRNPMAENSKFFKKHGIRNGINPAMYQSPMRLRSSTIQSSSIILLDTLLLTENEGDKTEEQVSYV

As usually defined, the Ki is a measure of affinity in units of concentration, obtained from inhibition or displacement. Higher therefore signals weaker binding.

The target of this assay is 5-hydroxytryptamine receptor 2B (Homo sapiens, UniProt P41595).

Consider `CC[C@@H](CO)NC(=O)[C@@H]1C=C2c3cccc4c3c(cn4C)C[C@H]2N(C)C1`, for which the inhibitory constant (Ki) turned out to be 0.15 µM.
